Assay results as given in paper PMC12052211.

Sequences of proteins named here, by UniProt entry; tags and fusion partners are left off. A change or cut given only in a name is not applied to a line headed by its entry.
UniProt P21730: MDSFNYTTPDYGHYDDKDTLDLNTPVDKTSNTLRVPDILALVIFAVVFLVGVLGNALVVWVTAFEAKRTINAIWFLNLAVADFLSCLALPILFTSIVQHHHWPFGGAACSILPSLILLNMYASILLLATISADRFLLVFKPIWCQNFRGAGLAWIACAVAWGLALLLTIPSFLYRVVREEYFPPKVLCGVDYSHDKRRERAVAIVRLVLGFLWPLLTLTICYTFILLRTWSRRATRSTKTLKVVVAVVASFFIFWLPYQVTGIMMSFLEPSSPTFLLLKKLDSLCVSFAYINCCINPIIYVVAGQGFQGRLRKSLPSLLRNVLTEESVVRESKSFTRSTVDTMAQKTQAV
UniProt O80067: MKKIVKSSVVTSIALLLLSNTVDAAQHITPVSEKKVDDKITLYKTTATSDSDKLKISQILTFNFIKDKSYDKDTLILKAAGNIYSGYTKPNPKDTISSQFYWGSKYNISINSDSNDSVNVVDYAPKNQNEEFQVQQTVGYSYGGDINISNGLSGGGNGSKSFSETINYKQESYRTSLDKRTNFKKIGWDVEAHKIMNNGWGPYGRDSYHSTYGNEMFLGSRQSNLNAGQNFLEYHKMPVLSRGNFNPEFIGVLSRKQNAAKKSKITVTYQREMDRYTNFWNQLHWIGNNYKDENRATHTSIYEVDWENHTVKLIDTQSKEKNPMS

Legend:
[1] = target: LukS-PV (S subunit of Panton-Valentine leukocidin) (Staphylococcus aureus) (UniProt O80066); test: neutron reflectometry; purified PVL (100 µg/ml) on supported POPC/TOCL (w/w 2:1) bilayer, neutral buffer (10 mM HEPES, pH/pD 7.4, 150 mM NaCl), 1 h, three isotopic contrasts; both purified
[2] = target: complement 5a receptor 1 (C5aR1) (human (endogenous in THP-1 and hiPSC-derived macrophages)) (UniProt P21730); test: flow cytometry on cells; THP-1 macrophages (WT Cas9, SGMS1 KO, C5aR1 KO; also PBS or MβCD treated) exposed to PVL or LukS-PV; cell-surface LukS-PV detected with anti-LukS-PV antibodies; binding reduced on SGMS1 KO cells; only the binder purified
[3] = target: complement 5a receptor 1 (C5aR1) (human (endogenous in THP-1 and hiPSC-derived macrophages)) (UniProt P21730); test: immunoblot of lysates of toxin-treated cells; total cell lysates of WT, C5aR1 KO and SGMS1 KO THP-1 macrophages treated with PVL for 5, 15 and 30 min, probed with antibodies against LukS-PV and C5aR1; only the binder purified

Substance | binding [1] | binding [2] | binding [3]
LukF-PV (F subunit of Panton-Valentine leukocidin) (from UniProt O80067) | no binding (only at pH 7.4 (POPC/TOCL bilayer)) |  | 
LukS-PV (S subunit of Panton-Valentine leukocidin) (from UniProt O80066) |  | binds | binds

Results are given in words; binding and its absence hold for the method and conditions named. For part of these data: A result given as binding can be weak or reduced; the word gives no strength.
